Results deposited as PubChem BioAssay AID743121 (NCATS, 2013)
Assay: 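Partners whose loss is lethal together with topoisomerase I blockade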 (primary screen). Cells: MDA-MB-231 cells, a human breast cancer line. Knock-down reagent: single siRNA against human genes, 20 nM siRNA (0.8 pmol per well). Duration: 120 h (drug added 48 h after transfection, read 72 h later). Challenge: camptothecin 20 nM (about EC30) for 72 h; vehicle 0.1% DMSO in parallel plates. Read-out: 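Cell viability by ATP luminescence (CellTiter-Glo) as % of non-targeting siRNA wells, and the log2 ratio of viability without drug over viability with camptothecin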. Scale: log2 vehicle/camptothecin viability: higher = stronger sensitisation to camptothecin; viability with camptothecin: higher = more viable cells. Units: viability with camptothecin in % of control. Active means: 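Active genes have an RSA gene-level p-value below 0.001, computed from the ratios of their separate siRNAs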.
The deposit covers about 26,000 reagents; shown is a part drawn at random. 167 of them (0.63%) were called active. 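Calls are per gene from RSA p-values that are not deposited; an individual active-marked siRNA can sensitise only weakly.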 A number with no mark means an inactive call. The numbers tell different reagents against one gene apart. Further read-outs or replicates are left out here.

HSPA5 #1 | log2 vehicle/camptothecin viability: -0.494; viability with camptothecin: 64.6
HSPA5 #2 | log2 vehicle/camptothecin viability: -0.0354; viability with camptothecin: 22.5
HSPA5 #3 | log2 vehicle/camptothecin viability: -0.449; viability with camptothecin: 105
CD7 #1 | log2 vehicle/camptothecin viability: -0.321; viability with camptothecin: 66.6
CD7 #2 | log2 vehicle/camptothecin viability: -0.499; viability with camptothecin: 90.2
CD7 #3 | log2 vehicle/camptothecin viability: -0.217; viability with camptothecin: 83.1
CD7 #4 | log2 vehicle/camptothecin viability: 0.755; viability with camptothecin: 7.67
ZAN #1 | log2 vehicle/camptothecin viability: -0.135; viability with camptothecin: 54.5
ZAN #2 | log2 vehicle/camptothecin viability: 0.224; viability with camptothecin: 76.2
ZAN #3 | log2 vehicle/camptothecin viability: -0.324; viability with camptothecin: 59.4
ZAN #4 | log2 vehicle/camptothecin viability: -0.312; viability with camptothecin: 77.6

Single entries from above:
ZAN #1, log2 vehicle/camptothecin viability → -0.135
Under “viability with camptothecin”, CD7 #3 shows 83.1
Result for HSPA5 #3 in “log2 vehicle/camptothecin viability”: -0.449

Next results:
SERPINA9 #1 | log2 vehicle/camptothecin viability: -0.101; viability with camptothecin: 113
SERPINA9 #2 | log2 vehicle/camptothecin viability: -0.417; viability with camptothecin: 75.3
SERPINA9 #3 | log2 vehicle/camptothecin viability: -0.386; viability with camptothecin: 113
SERPINA9 #4 | log2 vehicle/camptothecin viability: 0.104; viability with camptothecin: 43.4
FBXO28 #1 | log2 vehicle/camptothecin viability: -0.622; viability with camptothecin: 92.4
FBXO28 #2 | log2 vehicle/camptothecin viability: 0.416; viability with camptothecin: 51.4
FBXO28 #3 | log2 vehicle/camptothecin viability: -0.0156; viability with camptothecin: 113
FBXO28 #4 | log2 vehicle/camptothecin viability: 0.453; viability with camptothecin: 22.4
GPR139 #1 | log2 vehicle/camptothecin viability: 0.0506; viability with camptothecin: 60.2
GPR139 #2 | log2 vehicle/camptothecin viability: 0.0437; viability with camptothecin: 77.5
GPR139 #3 | log2 vehicle/camptothecin viability: 0.138; viability with camptothecin: 96.3
GPR139 #4 | log2 vehicle/camptothecin viability: 0.068; viability with camptothecin: 61.7
DLL3 #1 | log2 vehicle/camptothecin viability: 0.12; viability with camptothecin: 47.5
DLL3 #2 | log2 vehicle/camptothecin viability: -0.0706; viability with camptothecin: 87.8
PIP4K2C #1 | log2 vehicle/camptothecin viability: 0.0432; viability with camptothecin: 86.9
PIP4K2C #2 | log2 vehicle/camptothecin viability: -0.244; viability with camptothecin: 95.6
PIP4K2C #3 | log2 vehicle/camptothecin viability: 0.634; viability with camptothecin: 68.1
PIP4K2C #4 | log2 vehicle/camptothecin viability: -0.386; viability with camptothecin: 73
GJB6 #1 | log2 vehicle/camptothecin viability: -0.0123; viability with camptothecin: 90.5
GJB6 #2 | log2 vehicle/camptothecin viability: -0.0203; viability with camptothecin: 92.8
GJB6 #3 | log2 vehicle/camptothecin viability: -0.962; viability with camptothecin: 82
TRPM4 #1 | log2 vehicle/camptothecin viability: -0.525; viability with camptothecin: 48.1
TRPM4 #2 | log2 vehicle/camptothecin viability: -0.34; viability with camptothecin: 121
TRPM4 #3 | log2 vehicle/camptothecin viability: -0.14; viability with camptothecin: 91.3
